{"source": "PubChem BioAssay AID1259308 (NCATS, 2017)", "purpose": "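Genes whose loss raises luciferase production in HEK293 cells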 (primary screen)", "system": "human HEK293 embryonic kidney cells stably expressing firefly luciferase (HEK-CMV-Luc2-Hygro)", "knock-down reagent": "single siRNA against human genes, 0.8 pmol siRNA per well", "timing": "72 h", "measurement": "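Luciferase light (ONE-Glo) measured on one replicate plate set and viability (CellTiter-Glo) on the other, scaled to a negative control siRNA, with robust z-scores and luciferase per cell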", "reading the numbers": "total luciferase, z-score and total luciferase, % of control: higher = more reporter protein produced", "hit rule": "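An siRNA counts as active if its total luciferase robust z-score exceeds 3; genes with two or more such siRNAs out of three were retested with fresh siRNAs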", "meaning of the calls": "active = raised luciferase; inactive = no rise", "note": "The deposit covers about 59,000 reagents; this is a random part of them. Of all reagents, about 1,510 (2.6%) are marked active. 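Calls use total luciferase alone and ignore viability, so some active siRNAs may act by altering cell number.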 Reagents against one gene are numbered here. Not all columns of the deposit are shown. No sequences are given here."}
{"gene": "RIMBP3", "reagent no.": 1, "total luciferase, z-score": 0.694, "total luciferase, % of control": 95.7, "Outcome": "inactive"}
{"gene": "RIMBP3", "reagent no.": 2, "total luciferase, z-score": 1.36, "total luciferase, % of control": 109, "Outcome": "inactive"}
{"gene": "RIMBP3", "reagent no.": 3, "total luciferase, z-score": 0.501, "total luciferase, % of control": 91.8, "Outcome": "inactive"}
{"gene": "FMNL2", "reagent no.": 1, "total luciferase, z-score": 2.49, "total luciferase, % of control": 131, "Outcome": "inactive"}
{"gene": "FMNL2", "reagent no.": 2, "total luciferase, z-score": -0.92, "total luciferase, % of control": 63.6, "Outcome": "inactive"}
{"gene": "FMNL2", "reagent no.": 3, "total luciferase, z-score": -0.121, "total luciferase, % of control": 79.5, "Outcome": "inactive"}
{"gene": "MAGT1", "reagent no.": 1, "total luciferase, z-score": -0.0507, "total luciferase, % of control": 80.9, "Outcome": "inactive"}
{"gene": "MAGT1", "reagent no.": 2, "total luciferase, z-score": -1.13, "total luciferase, % of control": 59.4, "Outcome": "inactive"}
{"gene": "MAGT1", "reagent no.": 3, "total luciferase, z-score": -0.709, "total luciferase, % of control": 67.8, "Outcome": "inactive"}
{"gene": "SELE", "reagent no.": 1, "total luciferase, z-score": -1.87, "total luciferase, % of control": 44.8, "Outcome": "inactive"}
{"gene": "SELE", "reagent no.": 2, "total luciferase, z-score": -0.0759, "total luciferase, % of control": 80.4, "Outcome": "inactive"}
{"gene": "SELE", "reagent no.": 3, "total luciferase, z-score": -0.302, "total luciferase, % of control": 75.9, "Outcome": "inactive"}

Laid out differently: entries from further up.
gene	reagent no.	total luciferase, z-score	total luciferase, % of control	Outcome
SELE	2	-0.0759	80.4	inactive
SELE	3	-0.302	75.9	inactive
